Here are results for 59 molecules from PubChem BioAssay AID2685 (National Center for Advancing Translational Sciences (NCATS), 2010).

Each structure is given as a SMILES string. Some of the results follow. The main result of the screen is listed elsewhere. These columns were measured beside it and carry no call. The list favours compounds with an active or inconclusive main result. The note in brackets gives the kind of curve behind each potency; many fits are weak.

A short description of this assay: qHTS Assay for Lipid Storage Modulators in Drosophila S3 Cells.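 For cell number change: cells counted by Cell Tracker Red CMTPX staining in the red channel.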 To be noted: BODIPY lipid droplet fluorescence, 18-24 h; for cell number change: measured here: cell count max response, cells fed with added oleic acid. The essentials:
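Drosophila S3 cells loaded with oleic acid (400 uM, as added) and compounds at several concentrations; lipid droplets imaged by 488-nm laser-scanning cytometry, 500–530 nm intensity and object ratio to cell channel. Percent activity normalized to 20 uM Triacsin C.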

[1] abbreviates: measured here: cell number channel AC50, cells fed with added oleic acid.
Where [2] appears, read: measured here: lipid fluorescence (Fed channel) AC50, cells fed with added oleic acid.

With `COc1ccc(NS(=O)(=O)c2cccc(C(=O)NCC(c3ccco3)N(C)C)c2)cc1` (configuration not stated), the cell number change amounted to 49.2%. The AC50 under setting [1] is 16.4 µM [rising, single point].

As for `CCOc1ccccc1N(C)C(=O)c1sc2ncn(CC(=O)N3CCCCC3C)c(=O)c2c1C` (configuration not stated), the cell number change worked out at 43.6%. For the same molecule, the AC50 under setting [1] was 0.259 µM [rising, full curve, poor fit]. Also, under setting [2], the AC50 is 2.59 µM [falling, full curve].

As to `CCC(=O)NC(c1ccco1)c1cc(Cl)c2ccccc2c1O` (configuration not stated), the cell number change was -13.6%. Moreover, the AC50 under setting [2] was 25.9 µM [rising, partial curve, poor fit].

On to `CC(C)CC(NS(=O)(=O)c1ccccc1)C(=O)O` (configuration not stated), for which the cell number change was -77.9%. The AC50 under setting [1] is 11.6 µM [falling, partial curve].

Regarding `CCN(CC(=O)NCc1ccc(Cl)cc1)C(=O)CSc1cccc(C(F)(F)F)c1`, the AC50 under setting [2] is 32.6 µM [falling, single point].

As to `COC(=O)c1[nH]nc2c1C(=O)N(C1CCCCC1)C2=O`, the cell number change worked out at 2.65%. Also, the AC50 under setting [2] is 29.1 µM [rising, single point].

As to `Nc1nc(SCC(=O)NCCc2ccccc2)[nH]c(=O)c1-c1ccccc1`, the cell number change was -33.6%. Also, the AC50 under setting [1] was 29.1 µM [falling, single point]. Moreover, under setting [2], the AC50 was 18.4 µM [falling, single point].

Consider `O=C(O)CCCC(=O)Nc1ccc(OCc2nc3ccccc3s2)cc1`, for which the cell number change came to 7.93%. For the same molecule, the AC50 under setting [1] was 0.103 µM [falling, full curve, poor fit].

As to `COc1cc(C(C(=O)NC2CCCC2)N(Cc2ccco2)C(=O)c2snc(C(N)=O)c2N)cc(OC)c1OC` (configuration not stated), the cell number change is -0.417%. For the same molecule, the AC50 under setting [2] is 0.58 µM [rising, single point].

For `Cc1cc(C)n(C(=O)CNc2cccc(Cl)c2C)n1`, the cell number change is -5.42%.

For the molecule `O=C(Cn1cc([N+](=O)[O-])ccc1=O)NC1CCCCC1`, the cell number change is -0.634%.

Turning to `CC(=O)Nc1ccc(/C=N/N2CCCCC2)cc1`, the cell number change is -17%. Moreover, the AC50 under setting [2] was 5.8 µM [falling, full curve, poor fit].

Regarding `COCCN(Cc1nc(C(c2ccccc2)c2ccccc2)no1)C(C)C`, the cell number change was -6.59%. For the same molecule, the AC50 under setting [2] was 5.17 µM [rising, full curve].

Take `CCN(CC(=O)NC(C)C)C(=O)[C@@H](NC(=O)c1ccco1)C(C)C`: the cell number change stood at 13.2%.

Take `Cc1ccccc1-n1c(C)cc(/C=N/NC(=O)c2ccc(CN3CCOCC3)cc2)c1C`: the cell number change turned out to be 3.67%. The AC50 under setting [2] was 0.517 µM [falling, full curve].

For the molecule `O=C(COc1ncnc2ccccc12)NCCc1ccccc1`, the cell number change turned out to be 15.5%.

For the molecule `O=C(NCc1ccc2c(c1)OCO2)c1ccc(CSCc2cccc(Cl)c2)o1`, the cell number change amounted to 9.86%. Besides, under setting [2], the AC50 is 8.2 µM [rising, single point].

For the molecule `COc1cc(/C=N/NC(=O)CC#N)cc(Br)c1O`, the cell number change was -12.7%. Further, the AC50 under setting [2] is 7.31 µM [falling, partial curve].

As to `O=C(c1cc(F)c(F)cc1Cl)N1CCN(S(=O)(=O)c2cccs2)CC1`, the cell number change came to 24.1%.

Take `Cc1cc(F)ccc1NC(=O)C1CSC2(C)CCC(=O)N12` (configuration not stated): the cell number change is -13.6%. In addition, the AC50 under setting [2] is 29.1 µM [rising, single point].

For the molecule `Cn1nc(C(=O)NNC(=O)CCc2ccccc2Cl)c2ccccc2c1=O`, the cell number change is -5.76%. Moreover, under setting [2], the AC50 is 7.31 µM [falling, partial curve, poor fit].

`CCc1c(C)nc2ncnn2c1N1CCCC(C(=O)NCCc2ccc(OC)cc2)C1` (configuration not stated): the cell number change was -26.3%.

On to `O=C(O)CC1(CC(=O)N2CCOCC2)CCCC1`, for which the cell number change is -15.1%. For the same molecule, under setting [2], the AC50 is 29.1 µM [rising, single point].

In the case of `Cc1ccc(OCCCN2CCCC2)c(C)c1`, the cell number change is -85.7%. The AC50 under setting [1] was 29.1 µM [falling, single point]. Also, the half-maximal activity concentration (AC50) under setting [2] is 20.6 µM [falling, single point].

As to `Cc1nc2c(-c3ccc(F)cc3)c(C)nn2c(C)c1CCC(=O)N1CCN(c2ccccc2)CC1`, the cell number change came out at 51.9%. In addition, under setting [1], the AC50 is 4.11 µM [rising, partial curve, poor fit].

Consider `CCCOC(=O)c1ccc(NC(=O)c2cccc(S(=O)(=O)N3CCN(C(C)=O)CC3)c2)cc1`, for which the cell number change was found to be 5.13%. Besides, the AC50 under setting [1] is 2.06 µM [rising, single point]. Also, under setting [2], the AC50 is 4.11 µM [falling, partial curve].

Turning to `C(=C\n1nnc2ccccc21)/c1ccc[nH]1`, the cell number change is 27%. Under setting [2], the AC50 is 20.6 µM [rising, single point].

In the case of `Cc1c(OCc2nn[nH]n2)ccc2c3c(c(=O)oc12)CCCC3`, the cell number change stood at 71.9%. For the same molecule, under setting [1], the AC50 is 16.4 µM [rising, partial curve]. The AC50 under setting [2] is 0.146 µM [falling, single point].

Regarding `COc1ccc(-n2nc3c(c2NC(=O)C(C)C)CSC3)cc1`, the cell number change came out at 32.1%. Besides, the AC50 under setting [1] was 29.1 µM [rising, single point].

As for `CCn1c(SCC(=O)Nc2cc(C)on2)nnc1-c1cccnc1`, the cell number change was 14.6%. Besides, the AC50 under setting [2] is 0.116 µM [rising, single point].

Consider `CCCCn1c(-c2ccc(Cl)c(Cl)c2)nc2cc3[nH]c(=O)c(C(C)C)nc3cc21`, for which the cell number change was -16.2%.

In the case of `CCc1nc2oc3ccccc3c(=O)c2c(=O)n1Cc1ccccc1`, the cell number change was 26.2%. For the same molecule, the AC50 under setting [1] was 1.46 µM [rising, full curve, poor fit]. Moreover, the AC50 under setting [2] was 0.82 µM [rising, full curve].

Regarding `Cc1ccc(-c2c[n+](CC(=O)N3c4ccccc4Sc4ccccc43)c3n2CCC3)cc1`, the cell number change is -13.2%. Moreover, under setting [2], the AC50 was 29.1 µM [falling, single point].

As to `CC(C)c1ccc(S(=O)(=O)c2ccc(NN)cc2)cc1`, the cell number change was 30.6%. In addition, the AC50 under setting [1] is 0.00461 µM [rising, full curve, poor fit].

In the case of `O=C(CCSc1nc(-c2ccco2)cc(C(F)(F)F)n1)NCCc1ccccc1`, the cell number change is -5.19%. The AC50 under setting [1] was 4.11 µM [rising, single point]. Further, under setting [2], the AC50 was 0.58 µM [falling, single point].

As to `Cn1c(=O)c2c(SCc3ccccc3)nc(-c3ccco3)nc2n(C)c1=O`, the AC50 reads like this: under setting [1], 0.184 µM [rising, full curve, poor fit]; under setting [2], 0.146 µM [rising, full curve, poor fit].

Turning to `O=C(O)CCn1cc(/C=C2\SC(=S)NC2=O)c(-c2ccccc2)n1`, the cell number change was found to be 78.8%.

For the molecule `Cc1ccc(OCCn2c(CCCO)nc3ccccc32)cc1`, the cell number change was -73.6%. For the same molecule, the AC50 under setting [1] was 29.1 µM [falling, single point]. Further, under setting [2], the AC50 is 0.13 µM [rising, full curve, poor fit].

As for `COc1ccc(CNc2nc(NCc3ccc(OC)cc3)c3[nH]cnc3n2)cc1`, the cell number change was -4.03%. Moreover, the AC50 under setting [2] was 2.91 µM [rising, single point].

As to `O=C(Nc1ccc(S(=O)(=O)N2CCCC2)cc1)c1ccc(CN2CCc3ccccc3C2)cc1`, the cell number change was -41.4%. Further, the AC50 under setting [1] was 13 µM [falling, partial curve, poor fit]. The concentration at half-maximal activity (AC50) under setting [2] was 7.31 µM [falling, partial curve].

Consider `Cc1ccc(CN2CCN(/N=C/c3ccc(C(F)(F)F)cc3)CC2)c(C)c1`, for which the cell number change was -6.59%.

Consider `CCC(c1nnnn1Cc1ccc2c(c1)OCO2)N1CCN(c2ccc(OC)cc2)CC1` (configuration not stated), for which the AC50 is 0.092 µM [rising, full curve, poor fit] under setting [1] and 0.092 µM [rising, partial curve, poor fit] under setting [2].

Take `CC(=O)Nc1ccc(S(=O)(=O)N2CCSC2c2ccc(C)cc2)cc1` (configuration not stated): the cell number change is -21.8%.

Regarding `COC(=O)C1=C(O)/C(=C/c2ccc(OCC(=O)Nc3ccccc3)cc2)N=C1C`, the cell number change amounted to 8.65%. Also, the AC50 under setting [2] was 0.731 µM [falling, full curve].

As to `COc1ccc([C@@H]2CC=C(C(=O)O)[C@H](c3ccc(F)cc3)N2S(=O)(=O)c2ccc(Cl)cc2)cc1`, the cell number change was 18.9%. Under setting [2], the AC50 was 0.13 µM [rising, full curve, poor fit].

In the case of `Cc1cc2cc(C)c3nnc(SCC(=O)Nc4ccc(S(=O)(=O)N5CCCCC5C)cc4)n3c2cc1C` (configuration not stated), the cell number change is -16.7%.

Consider `CCCOc1ccc(-c2nnn(CC(=O)c3c[nH]c4ccccc34)n2)cc1`, for which the AC50 under setting [1] was 3.26 µM [rising, single point].

As for `Cc1ccc(C(=O)N/C(=C\c2ccco2)C(=O)NCCN2CCOCC2)cc1`, the cell number change is -13.2%.

Turning to `COc1ccc(Oc2cc(C)nc(Cl)n2)nn1`, the cell number change came to 17.2%. Also, the AC50 under setting [2] is 29.1 µM [falling, single point].

For the molecule `CN1CCN(CC(=O)NC(=O)NC2CCCCC2)CC1`, the cell number change is -33.6%. Further, the AC50 under setting [1] is 0.461 µM [falling, full curve].

Regarding `Nc1c(N(Cc2ccco2)C(=O)c2cccc(Cl)c2)c(=O)[nH]c(=O)n1Cc1ccccc1`, the cell number change was -22.2%. Also, the AC50 under setting [2] was 0.92 µM [rising, single point].

`Cc1cccc(-n2c(SCC(=O)NCc3ccco3)nc3ccccc3c2=O)c1`: the cell number change is 22.4%. Further, the AC50 under setting [1] was 3.66 µM [rising, single point]. The AC50 under setting [2] is 10.3 µM [rising, single point].

Regarding `Cc1cccc(NC(=O)CSc2nnc(CCNC(=O)OC(C)(C)C)o2)c1C`, the cell number change amounted to 6.3%. For the same molecule, under setting [1], the AC50 is 2.06 µM [rising, single point].

Turning to `COc1ccccc1-c1oc2ccccc2c1C#CC1(N)CCCCC1`, the cell number change was -58.9%. Further, the AC50 under setting [1] is 29.1 µM [falling, single point].

`O=C1c2cc([N+](=O)[O-])cc3cc([N+](=O)[O-])cc(c23)C(=O)N1c1ccccn1`: the cell number change is -9.78%. Also, under setting [1], the AC50 was 0.13 µM [rising, full curve]. Moreover, under setting [2], the AC50 was 0.13 µM [rising, full curve, poor fit].

Consider `COC(=O)CSc1ncc(C#N)c(N)n1`, for which the cell number change was -17.3%. Under setting [2], the AC50 was 2.31 µM [falling, partial curve, poor fit].

For `Cn1cnc([N+](=O)[O-])c1Oc1cccc2ccccc12`, the cell number change was -61.1%. Besides, the AC50 under setting [1] is 23.1 µM [falling, partial curve]. Moreover, the AC50 under setting [2] was 20.6 µM [falling, partial curve].

Turning to `Clc1cnc(N/N=C/c2ccncc2)c(Cl)c1`, the cell number change was 25.7%. Further, the AC50 under setting [2] was 29.1 µM [rising, single point].

As for `S=C(Sc1ccc(Cl)cc1)Sc1ccc(Cl)cc1`, the cell number change is -25.6%. Also, the AC50 under setting [1] was 4.61 µM [falling, partial curve, poor fit]. The AC50 under setting [2] was 2.91 µM [falling, partial curve].

Usually AC50 stands for the concentration giving half of the maximal activity seen. Low readings indicate activity at low concentration, high ones activity only at high concentration.
